Laboratory results reported in publication PMC4000008.

How the values were obtained:
Assay in all cases: two-hybrid; MatchMaker GAL4 system, BnaCPK in pGBKT7 (BD), BnaPP2C in pGADT7 (AD), yeast strain AH109; scored by growth on SD-LWHA at 30°C, dilution series and X-gal staining (Figure 4)
[1] = biological target: BnaCPK30 (Brassica napus)
[2] = biological target: BnaCPK28 (Brassica napus) (UniProt X2C213)
BnaCPK7 (Brassica napus) = BnaCPK7 (Brassica napus) (UniProt X2C4A1)
[3] = biological target: BnaCPK32 (Brassica napus) (UniProt X2D314)

Substance	binding [1]	binding [2]	binding (BnaCPK7 (Brassica napus))	binding [3]
BnaAHG3 (from UniProt X2C3V5) (enzyme)	binds			
BnaHAI3 (from UniProt X2G6A7) (enzyme)	binds			
BnaAHG1 (from UniProt X2GFY9) (enzyme)			binds	
BnaHAB1 (from UniProt A0A816ZBR0) (enzyme)			binds	binds

Continued, values first:

binding [1]	binding [2]	binding (BnaCPK7 (Brassica napus))	binding [3]	Substance
	binds	binds		BnaHAB2 (from UniProt X2C3X2) (enzyme)
binds		binds		BnaHAI2 (from UniProt X2GCR9) (enzyme)

These are yes or no findings as the source states them, for the method shown. Binding can be weak; no strength is given.
